Source: US20090158448A1 (NATIONAL UNIVERSITY CORPORATION TOKYO MEDICAL AND DENTAL …, published 2009)
No constants are given. Whether binding was seen depends on the method and setting. In cells and extracts the contact can be indirect. Some binding calls cover weakened binding; strength is not graded here. Tags and fused reporters may be left off the sequences shown.

B1: wild type (WT) mouse MuSK fused to myc tag (receptor, not shown: small tags and cut ends)
chain: EKLPKAPVITTPLETVDALVEEVATFMCAVESYPQPEISWTRNKILIKLFDTRYSIRENGQLLTILSVEDSDDGIYCCIANNGVGGAVESCGALQVKMKPKITRPPINVKIIEGLKAVLPCTTMGNPKPSVSWIKGDNALRENSRIAVLESGSLRIHNVQKEDAGQYRCVAKNSLGTAYSKLVKLEVEVFARILRAPESHNVTFGSFVTLRCTAIGIPVPTISWIENGNAVSSGSIQESVKDRVIDSRLQLFITKPGLYTCIATNKHGEKFSTAKAAATVSIAEWSKSQKDSQGYCAQYRGEVCDAVLAKDALVFFNTSYRDPEDAQELLIHTAWNELKAVSPLCRPAAEALLCNHLFQECSPGVVPTPMPICREYCLAVKELFCAKEWQAMEGKAHRGLYRSGMHLLPVPECSKLPSMHRDPTACTRLPYLDYKKENITTFPSITSSRPSADIPNLPASTSSFAVSPAYSMTVIISIVSSFALFALLTIATLYCCRRRKEWKNKKRESTAVTLTTLPSELLLDRLHPNPMYQRMPLLLNPKLLSLEYPRNNIEYVRDIGEGAFGRVFQARAPGLLPYEPFTMVAVKMLKEEASADMQADFQREAALMAEFDNPNIVKLLGVCAVGKPMCLLFEYMAYGDLNEFLRSMSPHTVCSLSHSDLSTRARVSSPGPPPLSCAEQLCIARQVAAGMAYLSERKFVHRDLATRNCLVGETMVVKIADFGLSRNIYSADYYKADGNDAIPIRWMPPESIFYNRYTTESDVWAYGVVLWEIFSYGLQPYYGMAHEEVIYYVRDGNILACPENCPLELYNLMRLCWSKLPADRPSFCSIHRILQRMCERAEGTVGV
B2: wild type human Dok-7 protein (other)
chain: MTEAALVEGQVKLRDGKKWKSRWLVLRKPSPVADCLLMLVYKDKSERIKGLRERSSLTLEDICGLEPGLPYEGLVHTLAIVCLSQAIMLGFDSHEAMCAWDARIRYALGEVHRFHVTVAPGTKLESGPATLHLCNDVLVLARDIPPAVTGQWKLSDLRRYGAVPSGFIFEGGTRCGYWAGVFFLSSAEGEQISFLFDCIVRGISPTKGPFGLRPVLPDPSPPGPSTVEERVAQEALETLQLEKRLSLLSHAGRPGSGGDDRSLSSSSSEASHLDVSASSRLTAWPEQSSSSASTSQEGPRPAAAQAAGEAMVGASRPPPKPLRPRQLQEVGRQSSSDSGIATGSHSSYSSSLSSYAGSSLDVWRATDELGSLLSLPAAGAPEPSLCTCLPGTVEYQVPTSLRAHYDTPRSLCLAPRDHSPPSQGSPGNSAARDSGGQTSAGCPSGWLGTRRRGLVMEAPQGSEATLPGPAPGEPWEAGGPHAGPPPAFFSACPVCGGLKVNPPP
notes: also called WT; polypeptide of the present invention

Legend:
[1] = molecular target: T1, wild type human Dok-7 protein (human) (UniProt Q18PE1); experiment: co-immunoprecipitation (anti-myc) and western, 293T cell lysate
T1 sequence: B2 chain

[2] = molecular target: T2, wild type (WT) mouse MuSK fused to myc tag (mouse) (UniProt Q61006); experiment: as above
T2 sequence: B1 chain

| Binder | binding [1] | binding [2] |
| --- | --- | --- |
| B1 | binds |  |
| B2 |  | binds |
